# Measured values taken from article PMC5488176.
# Protein sequences, listed by entry. Tags and fused reporters are not part of them.
# UniProt O82486: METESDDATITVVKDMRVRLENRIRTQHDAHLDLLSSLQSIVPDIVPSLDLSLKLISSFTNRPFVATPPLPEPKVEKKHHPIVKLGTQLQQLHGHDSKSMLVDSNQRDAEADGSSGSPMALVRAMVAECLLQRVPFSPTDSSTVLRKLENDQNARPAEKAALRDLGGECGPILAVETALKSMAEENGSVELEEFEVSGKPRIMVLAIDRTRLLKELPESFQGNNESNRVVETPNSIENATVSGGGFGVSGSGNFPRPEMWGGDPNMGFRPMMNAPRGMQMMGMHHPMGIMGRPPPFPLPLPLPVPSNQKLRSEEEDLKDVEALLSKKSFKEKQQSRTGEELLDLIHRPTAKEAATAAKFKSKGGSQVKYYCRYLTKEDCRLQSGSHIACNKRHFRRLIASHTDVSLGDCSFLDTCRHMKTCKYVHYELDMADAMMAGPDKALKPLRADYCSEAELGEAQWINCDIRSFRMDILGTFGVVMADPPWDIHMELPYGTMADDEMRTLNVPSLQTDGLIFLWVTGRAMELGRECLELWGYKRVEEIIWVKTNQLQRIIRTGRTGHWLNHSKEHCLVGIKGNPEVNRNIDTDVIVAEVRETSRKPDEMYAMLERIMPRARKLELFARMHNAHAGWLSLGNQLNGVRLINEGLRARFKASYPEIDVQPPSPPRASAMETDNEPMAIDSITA
# These are yes or no findings as the source states them, for the method shown.
# Target: MTA, yeast two-hybrid fusion (Arabidopsis thaliana) (UniProt O82486)
# Assay: two-hybrid; yeast two-hybrid, fusions to activation domain (pDEST22) and binding domain (pDEST32); growth on media lacking histidine with 3-AT (-LTH) or lacking adenine (-LTA), recorded after 4 d; three technical and three biological replicates
substance,measurement,value
"MTA, yeast two-hybrid fusion (from UniProt O82486 1-685)",binding,no binding
